Source: PubChem BioAssay AID743121 (NCATS, 2013)
Here is a random part of about 26,000 reagents. 167 of all reagents (0.63%) count as active. 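Calls are per gene from RSA p-values that are not deposited; an individual active-marked siRNA can sensitise only weakly.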 Unmarked entries are inactive. The numbers tell different reagents against one gene apart. Further read-outs or replicates are left out here.

Aim: 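Genes whose silencing strengthens cell killing by camptothecin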 (primary screen)
System: MDA-MB-231 cells, a human breast cancer line
Reagent: single siRNA against human genes, 20 nM siRNA (0.8 pmol per well)
Timing: 120 h (drug added 48 h after transfection, read 72 h later)
Challenge: camptothecin 20 nM (about EC30) for 72 h; vehicle 0.1% DMSO in parallel plates
Measurement: 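Cell viability by ATP luminescence (CellTiter-Glo) as % of non-targeting siRNA wells, and the log2 ratio of viability without drug over viability with camptothecin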
Direction: log2 vehicle/camptothecin viability: higher = stronger sensitisation to camptothecin; viability with camptothecin: higher = more viable cells
Active means: 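Active genes have an RSA gene-level p-value below 0.001, computed from the ratios of their separate siRNAs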

Target gene	siRNA no.	log2 vehicle/camptothecin viability	viability with camptothecin (% of control)
ADSL (adenylosuccinate lyase)	1	-0.745	92.1
ADSL (adenylosuccinate lyase)	2	0.525	22.8
ADSL (adenylosuccinate lyase)	3	-0.717	99.4
STK33 (serine/threonine kinase 33)	1	-0.456	37.6
STK33 (serine/threonine kinase 33)	2	-0.155	30
STK33 (serine/threonine kinase 33)	3	-0.0328	76.1
STK33 (serine/threonine kinase 33)	4	-0.294	63.3
AIPL1 (AIP like 1 HSP90 co-chaperone)	1	-0.239	113
AIPL1 (AIP like 1 HSP90 co-chaperone)	2	-0.0781	48.7
AIPL1 (AIP like 1 HSP90 co-chaperone)	3	-0.408	43.1
TRPC3	1	0.105	64.6
TRPC3	2	-0.484	80.5
TRPC3	3	0.00357	67.4
CCNB3 (cyclin B3)	1	-0.448	71.3
CCNB3 (cyclin B3)	2	0.158	69.1
CCNB3 (cyclin B3)	3	0.692	11.9
CCNB3 (cyclin B3)	4	-0.366	72.9
STK31 (serine/threonine kinase 31)	1	-0.0586	114
STK31 (serine/threonine kinase 31)	2	-0.122	69.2
STK31 (serine/threonine kinase 31)	3	-0.014	72.2
STK31 (serine/threonine kinase 31)	4	-0.351	52.2
OVCH1 (ovochymase 1)	1	-0.48	118
OVCH1 (ovochymase 1)	2	-0.283	81.8
OVCH1 (ovochymase 1)	3	-0.509	73.1
ERG (ETS transcription factor ERG)	1	0.0918	70.7
ERG (ETS transcription factor ERG)	2	0.773	47.1
ERG (ETS transcription factor ERG)	3	-1.05	55.1
ERG (ETS transcription factor ERG)	4	0.00419	82.5
CACNG2 (calcium voltage-gated channel auxiliary subunit gamma 2)	1	-0.411	122
CACNG2 (calcium voltage-gated channel auxiliary subunit gamma 2)	2	0.122	82.3
CACNG2 (calcium voltage-gated channel auxiliary subunit gamma 2)	3	-0.143	94.9
CACNG2 (calcium voltage-gated channel auxiliary subunit gamma 2)	4	0.0998	98.1
AKR1C8 (aldo-keto reductase family 1 member C8)	1	-0.278	85.9
AKR1C8 (aldo-keto reductase family 1 member C8)	2	-0.138	98.4
AKR1C8 (aldo-keto reductase family 1 member C8)	3	-0.374	24.4
TACSTD2 (tumor associated calcium signal transducer 2)	1	-0.0615	68.5
TACSTD2 (tumor associated calcium signal transducer 2)	2	0.0268	101
TACSTD2 (tumor associated calcium signal transducer 2)	3	-0.0367	71.5

Copied from above (15 entries):
Target gene	siRNA no.	log2 vehicle/camptothecin viability	viability with camptothecin (% of control)
STK31 (serine/threonine kinase 31)	4	-0.351	52.2
OVCH1 (ovochymase 1)	1	-0.48	118
OVCH1 (ovochymase 1)	2	-0.283	81.8
OVCH1 (ovochymase 1)	3	-0.509	73.1
ERG (ETS transcription factor ERG)	1	0.0918	70.7
ERG (ETS transcription factor ERG)	2	0.773	47.1
ERG (ETS transcription factor ERG)	3	-1.05	55.1
ERG (ETS transcription factor ERG)	4	0.00419	82.5
CACNG2 (calcium voltage-gated channel auxiliary subunit gamma 2)	1	-0.411	122
CACNG2 (calcium voltage-gated channel auxiliary subunit gamma 2)	2	0.122	82.3
CACNG2 (calcium voltage-gated channel auxiliary subunit gamma 2)	3	-0.143	94.9
CACNG2 (calcium voltage-gated channel auxiliary subunit gamma 2)	4	0.0998	98.1
AKR1C8 (aldo-keto reductase family 1 member C8)	1	-0.278	85.9
AKR1C8 (aldo-keto reductase family 1 member C8)	2	-0.138	98.4
AKR1C8 (aldo-keto reductase family 1 member C8)	3	-0.374	24.4

Continued:
Target gene	siRNA no.	log2 vehicle/camptothecin viability	viability with camptothecin (% of control)
HSD17B14 (hydroxysteroid 17-beta dehydrogenase 14)	1	-0.208	76.5
HSD17B14 (hydroxysteroid 17-beta dehydrogenase 14)	2	-0.0549	65
HSD17B14 (hydroxysteroid 17-beta dehydrogenase 14)	3	0.0163	84.3
HSD17B14 (hydroxysteroid 17-beta dehydrogenase 14)	4	0.163	70.6
EPS8L1 (EPS8 signaling adaptor L1)	1	-0.107	110
EPS8L1 (EPS8 signaling adaptor L1)	2	-0.156	90.5
EPS8L1 (EPS8 signaling adaptor L1)	3	-0.554	53.8
EPS8L1 (EPS8 signaling adaptor L1)	4	-0.29	77.5
MMP17 (matrix metallopeptidase 17)	1	-0.424	54.2
MMP17 (matrix metallopeptidase 17)	2	0.00192	117
MMP17 (matrix metallopeptidase 17)	3	0.473	28.8
MMP17 (matrix metallopeptidase 17)	4	-0.378	87.4
BAIAP2 (BAR/IMD domain containing adaptor protein 2)	1	-0.455	109
BAIAP2 (BAR/IMD domain containing adaptor protein 2)	2	-0.201	21.6
BAIAP2 (BAR/IMD domain containing adaptor protein 2)	3	-0.441	84.4
BAIAP2 (BAR/IMD domain containing adaptor protein 2)	4	0.439	50.9
NLE1 (notchless homolog 1)	1	-0.22	94.9
NLE1 (notchless homolog 1)	2	-0.119	93
NLE1 (notchless homolog 1)	3	-0.378	82.6
NLE1 (notchless homolog 1)	4	-0.199	90.6
PPP3R1 (protein phosphatase 3 regulatory subunit B, alpha)	1	-0.381	67.3
PPP3R1 (protein phosphatase 3 regulatory subunit B, alpha)	2	-0.501	92.8
PPP3R1 (protein phosphatase 3 regulatory subunit B, alpha)	3	0.597	34.3
PPP3R1 (protein phosphatase 3 regulatory subunit B, alpha)	4	-0.256	40.3
CDK18 (cyclin dependent kinase 18)	1	-0.226	107
CDK18 (cyclin dependent kinase 18)	2	0.0782	33.6
CDK18 (cyclin dependent kinase 18)	3	0.174	63.8
CDK18 (cyclin dependent kinase 18)	4	-0.231	104
ACTN1 (actinin alpha 1)	1	0.24	48.2
ACTN1 (actinin alpha 1)	2	-0.0687	84.1
ACTN1 (actinin alpha 1)	3	0.184	31.4
ACTN1 (actinin alpha 1)	4	1.01	4.11
PROZ (protein Z, vitamin K dependent plasma glycoprotein)	1	-0.338	92.6
PROZ (protein Z, vitamin K dependent plasma glycoprotein)	2	-0.23	25
PROZ (protein Z, vitamin K dependent plasma glycoprotein)	3	-0.284	101
PROZ (protein Z, vitamin K dependent plasma glycoprotein)	4	0.0398	92.1
TPSG1 (tryptase gamma 1)	1	0.325	52.3
TPSG1 (tryptase gamma 1)	2	-0.551	58.2
TPSG1 (tryptase gamma 1)	3	-0.175	26.4
TPSG1 (tryptase gamma 1)	4	-0.404	75.7
OAS2 (2'-5'-oligoadenylate synthetase 2)	1	0.796	34.9
OAS2 (2'-5'-oligoadenylate synthetase 2)	2	0.0329	111
OAS2 (2'-5'-oligoadenylate synthetase 2)	3	0.0287	59.2
OAS2 (2'-5'-oligoadenylate synthetase 2)	4	-0.139	40.8
CDC42SE2 (CDC42 small effector 2)	1	-0.625	87.4
CDC42SE2 (CDC42 small effector 2)	2	0.399	47.1
CDC42SE2 (CDC42 small effector 2)	3	-0.514	86.2
CDC42SE2 (CDC42 small effector 2)	4	-0.162	97.6
SRI (sorcin)	1	-0.344	84.3
SRI (sorcin)	2	-0.0886	108
SRI (sorcin)	3	0.395	49.4
SRI (sorcin)	4	-0.28	92.4
